According to patent publication US20140335107A1:
Positions count from the first letter of the chain named. These are yes or no findings as the source states them, for the method shown. Some entries that bind do so weakly or less than the wild type.

The chains behind the UniProt entries cited, without tags or fusion partners. Where a name states a change or a piece, a line headed by the entry shows the natural chain unless it says otherwise.
UniProt P40259: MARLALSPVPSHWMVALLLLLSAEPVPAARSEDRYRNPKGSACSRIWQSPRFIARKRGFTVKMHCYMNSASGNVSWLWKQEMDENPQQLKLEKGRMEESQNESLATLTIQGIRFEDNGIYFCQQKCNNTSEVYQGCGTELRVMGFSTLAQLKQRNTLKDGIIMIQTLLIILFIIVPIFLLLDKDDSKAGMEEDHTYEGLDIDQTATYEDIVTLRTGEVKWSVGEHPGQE

B1: huMA79b graft variant with HVR-H1 of SEQ ID NO: 67 (H1-1), Fab (Fab, name in Kabat numbering, V domains shown)
VH: EVQLVESGGGLVQPGGSLRLSCAASGYPFNRYWINWVRQAPGKGLEWVGEILPGGGDTNYNEIFKGRFTISADTSKNTAYLQMNSLRAEDTAVYYCTRRVPVYFDYWGQGTLVTVSS
VL: DIQMTQSPSSLSASVGDRVTITCKASQSVDYDGDSFLNWYQQKPGKAPKLLIYAASNLESGVPSRFSGSGSGTDFTLTISSLQPEDFATYYCQQSNEDPLTFGQGTKVEIKR
B2: huMA79b graft variant with HVR-H1 of SEQ ID NO: 76 (Fab, name in Kabat numbering, V domains shown)
VH: B1 VH with P28S, N30P, R31S, I34L, N35Q
VL: B1 VL
B3: huMA79b graft variant with HVR-H3 of SEQ ID NO: 98 (Fab, name in Kabat numbering, V domains shown)
VH: B1 VH with P28T, N30S, R31S, N35E, D105S
VL: B1 VL
B4: huMA79b graft variant with HVR-H1 of SEQ ID NO: 75 (Fab, name in Kabat numbering, V domains shown)
VH: B1 VH with P28S, N30R, N35E
VL: B1 VL
B5: huMA79b graft variant with HVR-H3 of SEQ ID NO: 100 (Fab, name in Kabat numbering, V domains shown)
VH: B1 VH with P28T, N30S, R31S, N35E, Y103R, F104L
VL: B1 VL
B6: huMA79b graft variant with HVR-H1 of SEQ ID NO: 78 (Fab, name in Kabat numbering, V domains shown)
VH: B1 VH with N30S, R31G, N35E
VL: B1 VL
B7: huMA79b graft variant with HVR-H1 of SEQ ID NO: 80 (Fab, name in Kabat numbering, V domains shown)
VH: B1 VH with N30R, R31S
VL: B1 VL
B8: huMA79b graft variant with HVR-H3 of SEQ ID NO: 87 (also printed for SEQ ID NO: 103) (Fab, name in Kabat numbering, V domains shown)
VH: B1 VH with P28T, N30S, R31S, N35E, V102I, F104L
VL: B1 VL
B9: huMA79b graft variant with HVR-H1 of SEQ ID NO: 73 (Fab, name in Kabat numbering, V domains shown)
VH: B1 VH with P28S, N30R, R31S
VL: B1 VL
B10: huMA79b graft variant with HVR-H3 of SEQ ID NO: 105 (Fab, name in Kabat numbering, V domains shown)
VH: B1 VH with P28T, N30S, R31S, N35E, V100R, Y103C, F104L
VL: B1 VL
B11: huMA79b graft variant with HVR-H3 of SEQ ID NO: 91 (also printed for SEQ ID NO: 97 and 104) (Fab, name in Kabat numbering, V domains shown)
VH: B1 VH with P28T, N30S, R31S, N35E, V102I
VL: B1 VL
B12: huMA79b graft variant with HVR-H3 of SEQ ID NO: 101 (Fab, name in Kabat numbering, V domains shown)
VH: B1 VH with P28T, N30S, R31S, N35E, Y103R
VL: B1 VL
B13: huMA79b graft variant with HVR-H1 of SEQ ID NO: 84 (Fab, name in Kabat numbering, V domains shown)
VH: B1 VH with P28N, F29V, N30S, R31S, I34L, N35S
VL: B1 VL
B14: huMA79b graft variant with HVR-H1 of SEQ ID NO: 85 (Fab, name in Kabat numbering, V domains shown)
VH: B1 VH with Y27F, N30T, R31S, N35S
VL: B1 VL
B15: huMA79b graft variant with HVR-H3 of SEQ ID NO: 96 (Fab, name in Kabat numbering, V domains shown)
VH: B1 VH with P28T, N30S, R31S, N35E, V102I, Y103R
VL: B1 VL
B16: huMA79b graft variant with HVR-H1 of SEQ ID NO: 86 (Fab, name in Kabat numbering, V domains shown)
VH: B1 VH with Y27F
VL: B1 VL
B17: huMA79b graft variant with HVR-H1 of SEQ ID NO: 83 (Fab, name in Kabat numbering, V domains shown)
VH: B1 VH with R31G
VL: B1 VL
B18: huMA79b graft variant with HVR-H1 of SEQ ID NO: 79 (Fab, name in Kabat numbering, V domains shown)
VH: B1 VH with N30R, R31S, N35S
VL: B1 VL
B19: huMA79b graft variant with HVR-H3 of SEQ ID NO: 102 (Fab, name in Kabat numbering, V domains shown)
VH: B1 VH with P28T, N30S, R31S, N35E, Y103F, F104L
VL: B1 VL
B20: huMA79b graft variant with HVR-H1 of SEQ ID NO: 81 (Fab, name in Kabat numbering, V domains shown)
VH: B1 VH with N30R, R31G, N35E
VL: B1 VL
B21: huMA79b graft variant with HVR-H3 of SEQ ID NO: 106 (Fab, name in Kabat numbering, V domains shown)
VH: B1 VH with P28T, N30S, R31S, N35E, V100I
VL: B1 VL
B22: huMA79b graft variant with HVR-H3 of SEQ ID NO: 89 (Fab, name in Kabat numbering, V domains shown)
VH: B1 VH with P28T, N30S, R31S, N35E, Y103K, F104L
VL: B1 VL
B23: huMA79b graft variant with HVR-H1 of SEQ ID NO: 82 (Fab, name in Kabat numbering, V domains shown)
VH: B1 VH with N35E
VL: B1 VL
B24: huMA79b graft variant with HVR-H3 of SEQ ID NO: 92 (Fab, name in Kabat numbering, V domains shown)
VH: B1 VH with P28T, N30S, R31S, N35E, V102F, Y103C, F104L
VL: B1 VL
B25: huMA79b graft variant with HVR-H1 of SEQ ID NO: 74 (Fab, name in Kabat numbering, V domains shown)
VH: B1 VH with P28S, N30R
VL: B1 VL
B26: huMA79b graft variant with HVR-H3 of SEQ ID NO: 90 (also printed for SEQ ID NO: 93) (Fab, name in Kabat numbering, V domains shown)
VH: B1 VH with P28T, N30S, R31S, N35E, F104L
VL: B1 VL
B27: huMA79b graft variant with HVR-H1 of SEQ ID NO: 77 (Fab, name in Kabat numbering, V domains shown)
VH: B1 VH with N30T, N35E
VL: B1 VL
B28: huMA79b graft variant with HVR-H3 of SEQ ID NO: 95 (Fab, name in Kabat numbering, V domains shown)
VH: B1 VH with P28T, N30S, R31S, N35E, V102I, Y103K, F104L
VL: B1 VL
B29: huMA79b graft variant with HVR-H3 of SEQ ID NO: 99 (Fab, name in Kabat numbering, V domains shown)
VH: B1 VH with P28T, N30S, R31S, N35E, Y103V, F104L
VL: B1 VL

Molecular target: extracellular domain of human CD79b (huCD79becd) (human) (UniProt P40259)
Experiment: phage selection, Fab on phage

binding, binds:
B1
B2
B3
B4
B5
B6
B7
B8
B9
B10
B11
B12
B13
B14
B15
B16
B17
B18
B19
B20
B21
B22
B23
B24
B25
B26
B27
B28
B29

Molecular target: human CD79b (human) (UniProt P40259)
Experiment: FACS on DoHH-2 cells, Fab (data not shown)

binding, binds:
B1
